# According to PubChem BioAssay AID624246 (National Center for Advancing Translational Sciences (NCATS), 2012):
# Chains of the proteins cited; added tags and fusions are not shown. Lines headed by an entry give the natural chain unless they say otherwise; changes in a name come on top.
# UniProt P11308: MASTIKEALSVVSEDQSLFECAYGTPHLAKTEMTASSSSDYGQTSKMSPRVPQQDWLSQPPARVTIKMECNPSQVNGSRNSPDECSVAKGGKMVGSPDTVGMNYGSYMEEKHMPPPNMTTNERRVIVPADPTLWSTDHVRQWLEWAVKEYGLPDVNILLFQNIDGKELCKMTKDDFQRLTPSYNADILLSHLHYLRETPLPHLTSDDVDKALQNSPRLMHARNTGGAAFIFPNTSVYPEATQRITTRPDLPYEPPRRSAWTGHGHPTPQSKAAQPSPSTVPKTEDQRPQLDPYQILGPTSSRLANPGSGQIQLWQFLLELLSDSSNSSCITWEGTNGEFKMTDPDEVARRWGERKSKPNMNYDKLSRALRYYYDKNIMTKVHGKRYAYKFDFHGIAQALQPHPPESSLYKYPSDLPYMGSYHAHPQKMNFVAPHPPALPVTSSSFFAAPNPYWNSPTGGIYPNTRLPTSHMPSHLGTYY
# The whole screen tested about 370,000 compounds, of which about 100 (0.027%) were called active. This list was built around the results that the source calls inconclusive (neither active nor inactive); the mix of calls is not that of the screen. Calls follow the shape of the dose curve; as a rule, active = well fitted inhibition curve with a large enough effect in the polarisation, with a control signal flat; inconclusive = small, poorly fitted or top-dose-only effect, or effect the other way, or a change in a side signal; inactive = no such curve, though single readings can be large or run the other way; the % refers to the polarisation. Where the call is inconclusive, the potency comes from a doubtful curve fit. A note “side channel” means that the fit belongs to a control or component signal, not to the main read-out.
# Target: Transcriptional regulator ERG (Homo sapiens) (UniProt P11308)
# Assay: qHTS for Small Molecule Inhibitors of the ERG Ets/DNA interaction
# Settings: fluorescence polarization, His-ERG Ets domain / labelled DNA; series mostly up to 76.9 µM
# Method in brief: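 His-tagged ERG Ets domain (1 uM in the protein solution; 300mM KCl, 50mM Tris-HCl, 1mM EDTA, 1mM DTT, pH 7.5) received compound, then a probe mix of 5 nM fluorescein-DNA and 100nM Texas-615-DNA. Fluorescence polarization was read for both dyes.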
# Potency is read from the fitted curve at half-maximal effect.
row,SMILES,Potency
1,CC(=O)SC(C[N+](=O)[O-])c1cn(C(C)=O)c2ccccc12 (centres undefined),inactive
2,O=C(Cn1cnc2ccccc2c1=O)NCCC(=O)Nc1ccc(F)cc1,"inconclusive: 14.1 µM [quencher, side channel, partial curve, poor fit]"
3,O=C1CCCC(=O)C1C(=O)C1CCN(S(=O)(=O)c2ccccc2)CC1,"inconclusive: 14.1 µM [fluorescent, side channel, partial curve, poor fit]"
4,COc1ccc(C(=O)NCc2ccc(OCCN(C)C)cc2)cc1OC,"inconclusive: 20 µM [inhibitor, single point]"
5,O=C(Nc1ncc([N+](=O)[O-])s1)c1cccs1,"inconclusive: 22.4 µM [inhibitor, partial curve, poor fit]"
6,Cc1ccc2nc3c(c(N)c2c1)CCN3C,"inconclusive: 7.94 µM [inhibitor, single point]"
7,COc1ccc(NCc2nnc(SCC(=O)Nc3nc(-c4ccccc4)cs3)n2-c2ccccc2)cc1,inactive
8,Cc1ccc(C(=O)c2oc3ccccc3c2NC(=O)c2cc(-c3ccccc3O)n[nH]2)cc1,"inconclusive: 28.2 µM [quencher, side channel, partial curve, poor fit]"
9,Cc1c(-c2nnc(SCC(=O)Nc3ccccc3F)o2)nnn1-c1ccc(F)cc1,"inconclusive: 35.5 µM [fluorescent, side channel, single point]"
10,COc1ccc(NC(=O)CSc2nc3ccc(Nc4nc(N5CCOCC5)nc(N5CCOCC5)n4)cc3s2)cc1,inactive
11,CCc1ccc(S(=O)(=O)NC2CC(C)(C)NC(C)(C)C2)cc1,"inconclusive: 28.2 µM [inhibitor, partial curve, poor fit]"
12,Cn1c(=O)cc2c3c(c(N4CCCCC4)ccc31)C(=O)c1ccccc1-2,"inconclusive: 7.94 µM [inhibitor, partial curve, poor fit]"
13,CC(=O)OC(COc1cccc(C)c1)Cn1cnc2ccccc21 (centres undefined),"inconclusive: 5.01 µM [quencher, side channel, single point]"
14,O=C(Cn1nc2n(c1=O)-c1ccccc1SC2)N/N=C/c1ccncc1,inactive
15,OC(c1cc(C(F)(F)F)nc2c(Cl)cc(Cl)cc12)C1CCCCN1 (centres undefined),"inconclusive: 50.1 µM [inhibitor, single point]"
16,Cc1c(OCC(=O)NCC2CCC(C(=O)NCCCO)CC2)ccc2c(-c3ccccc3)cc(=O)oc12 (centres undefined),"inconclusive: 6.31 µM [inhibitor, full curve, poor fit]"
17,CC(=O)Nc1ccc(/C(C)=N/NC(=O)c2ccccc2Cl)cc1,"inconclusive: 7.94 µM [inhibitor, single point]"
18,CCNC(=O)Cn1cnc2c1c(=O)n(C)c(=O)n2C,"inconclusive: 31.6 µM [quencher, side channel, partial curve, poor fit]"
19,Cn1c(-n2cccc2)c(-c2c(-c3ccccc3)[nH]c3c2c(=O)n(C)c(=O)n3C)c(=O)n(C)c1=O,inactive
20,COc1ccc(C(CCN)c2ccc3c(c2)OCO3)cc1 (centres undefined),inactive

row,SMILES,Potency
1,COc1ccc(-c2nn(-c3ccccc3)cc2/C=N/NC(=O)c2cccc(S(=O)(=O)Nc3ccccc3Cl)c2)cc1,inactive
2,CC1=C(C(=O)OCc2ccccc2)C(c2cccc(Cl)c2Cl)CC(=O)N1 (centres undefined),inactive
3,O=C(NN1C(=O)/C(=C/c2cccnc2)SC1=S)C(c1ccccc1)c1ccccc1,"inconclusive: 44.7 µM [fluorescent, side channel, partial curve, poor fit]"
4,CCc1cc(C(=O)NNC(=S)Nc2cccc(C)c2)cs1,"inconclusive: 35.5 µM [inhibitor, partial curve, poor fit]"
5,Cc1c(C2=CCN(S(=O)(=O)c3cccc(Cl)c3)CC2)c2ccccc2n1CC(=O)N1CCCC1,"inconclusive: 44.7 µM [fluorescent, side channel, partial curve, poor fit]"
6,Cc1c(C2=CCN(S(=O)(=O)c3ccc(CC(C)C)cc3)CC2)c2ccccc2n1CC(=O)N1CCCC1,"inconclusive: 31.6 µM [fluorescent, side channel, single point]"
7,Cc1ccc(NC(=O)C(NS(=O)(=O)c2ccc3c(c2)CCC(=O)N3)c2ccccc2)cc1C (centres undefined),"inconclusive: 50.1 µM [quencher, side channel, single point]"
8,COc1ccccc1N1CCN(c2csc3ccc(Cl)cc3c2=O)CC1,inactive
9,COc1ccccc1NC(=O)N1CCN(C(=O)Nc2ccccc2OC)CC1,"inconclusive: 3.55 µM [inhibitor, partial curve, poor fit]"
10,Cc1ccc(Cl)cc1NC(=O)c1oc2ccc(S(=O)(=O)N(C)C3CCCCC3)cc2c1C,"inconclusive: 79.4 µM [inhibitor, single point]"
11,Cc1ccc(OCC(=O)OCC(=O)c2ccccc2)cc1C,"inconclusive: 11.2 µM [inhibitor, single point]"
12,COc1ccc(O)c(-c2cc(-c3cccs3)[nH]n2)c1,"inconclusive: 35.5 µM [quencher, side channel, single point]"
13,Cc1cc(C)c(NC(=O)COC(=O)CCc2ccc(S(=O)(=O)N3CCCCC3)cc2)c(C)c1,"inconclusive: 50.1 µM [inhibitor, single point]"
14,COc1ccc(NC(=O)CSc2nc(C)c3c(c2C#N)CCCC3)cc1,"inconclusive: 39.8 µM [inhibitor, partial curve, poor fit]"
15,O=C(Nc1ccncc1)c1cn(-c2ccccc2)nc1-c1cccs1,"inconclusive: 100 µM [inhibitor, single point]"
16,CC(C)C(=O)NC(c1ccc(Cl)cc1Cl)c1ccc2cccnc2c1O (centres undefined),inactive
17,C=C(C)[C@@H]1CC=C(C(=O)O)CC1,"inconclusive: 50.1 µM [inhibitor, single point]"
18,COc1cc(NC(=O)Nc2cccc(-c3noc(C)n3)c2)cc(OC)c1OC,"inconclusive: 50.1 µM [quencher, side channel, single point]"
19,Cc1cc2cc(CNC(=S)Nc3ccc(OC(F)F)cc3)ccc2n1C,"inconclusive: 35.5 µM [inhibitor, single point]"
20,Cc1ccc(NC(=O)/C(C#N)=C/c2ccc(C)s2)c(C)c1,"inconclusive: 100 µM [inhibitor, single point]"

row,SMILES,Potency
1,COc1cccc(-c2nnc(SCC(=O)Nc3cc(C)on3)o2)c1,inactive
2,CCOC(=O)C(c1ccccc1)C(Nc1ccc(F)cc1)c1ccccn1 (centres undefined),"inconclusive: 35.5 µM [inhibitor, single point]"
3,Cc1ccc(/C=C(\C#N)c2nn(-c3ccccc3)c(N)c2C#N)cc1,"inconclusive: 11.2 µM [quencher, partial curve, poor fit]"
4,CCCC(c1nnnn1CS(=O)(=O)c1ccc(C)cc1)N1CCN(CC)CC1 (centres undefined),"inconclusive: 31.6 µM [inhibitor, partial curve, poor fit]"
5,C=CCn1c(=O)/c(=C/c2ccc(C)o2)s/c1=C(/C#N)C(=O)c1ccccc1,"inconclusive: 20 µM [fluorescent, side channel, partial curve, poor fit]"
6,COc1ccc2oc(=O)c(-c3nnc(-c4ccc(C)cc4)o3)cc2c1,inactive
7,COc1ccc(CNC(=O)c2ccc3c(=O)n(CCCN4CCCC4=O)c(=S)[nH]c3c2)cc1,inactive
8,COc1ccc(NC(C)=O)cc1CP(=O)(c1ccccc1)c1ccccc1,"inconclusive: 50.1 µM [inhibitor, single point]"
9,CN(C)S(=O)(=O)c1ccc(C(=O)OCC(=O)Nc2sc3c(c2C#N)CCCCC3)cc1,"inconclusive: 1.78 µM [quencher, side channel, full curve, poor fit]"
10,COC(=O)Cn1c(=NC(=O)CN2C(=O)CCC2=O)sc2cc(S(N)(=O)=O)ccc21,"inconclusive: 11.2 µM [inhibitor, single point]"
11,Cc1ccc2c(c1)N(CCC(=O)NCCCN1CCCC1)C(=O)CO2,"inconclusive: 6.31 µM [inhibitor, partial curve, poor fit]"
12,O=C(COC(=O)c1cc(=O)[nH]c2ccccc12)Nc1cccc(S(=O)(=O)N2CCOCC2)c1,"inconclusive: 50.1 µM [inhibitor, single point]"
13,CC1CC(=O)N(CC(=O)Nc2cccc(Cl)c2)c2ccccc2S1(=O)=O (centres undefined),"inconclusive: 14.1 µM [inhibitor, partial curve, poor fit]"
14,CCc1ccc(NS(=O)(=O)c2ccc3[nH]cc(C(=O)NCCCOC(C)C)c(=O)c3c2)cc1,inactive
15,CCn1cc(C(=O)NCc2ccc(Cl)cc2)c(=O)c2cc(S(=O)(=O)N(C)C3CCCCC3)ccc21,"inconclusive: 7.94 µM [quencher, side channel, partial curve, poor fit]"
16,COc1ccc(NS(=O)(=O)c2ccc3nc(-c4ccccc4)[nH]c3c2)cc1,"inconclusive: 35.5 µM [quencher, side channel, partial curve, poor fit]"
17,COc1cc(/C=N/NC(=O)CC2(C)OCCO2)cc(Br)c1O,"inconclusive: 2.82 µM [inhibitor, partial curve, poor fit]"
18,COCC1CCN(Cc2nc(-c3ccc4c(c3)OCO4)no2)C1 (centres undefined),"inconclusive: 7.08 µM [inhibitor, single point]"
19,COc1ccc(C(=O)NCC(=O)N2CC=C(c3ccccc3)CC2)cc1OC,"inconclusive: 28.2 µM [inhibitor, partial curve, poor fit]"

# Of the compounds above, 2 contain a nitro group on carbon.
row,SMILES,Potency
1,CC(=O)SC(C[N+](=O)[O-])c1cn(C(C)=O)c2ccccc12 (centres undefined),inactive
5,O=C(Nc1ncc([N+](=O)[O-])s1)c1cccs1,"inconclusive: 22.4 µM [inhibitor, partial curve, poor fit]"

# No new results follow: an excerpt of the list.
row,SMILES,Potency
13,CC1CC(=O)N(CC(=O)Nc2cccc(Cl)c2)c2ccccc2S1(=O)=O (centres undefined),"inconclusive: 14.1 µM [inhibitor, partial curve, poor fit]"
14,CCc1ccc(NS(=O)(=O)c2ccc3[nH]cc(C(=O)NCCCOC(C)C)c(=O)c3c2)cc1,inactive
